“And” between values parts separate entries of the source, which are not always exact repeats. Equal values may be shown once. Where a name gives a salt, the structure may show the parent alone. ± gives the standard deviation of the averaged measurements. The list shows a part of the results. This is a noisy data set.

In this test the test system is Salmonella enterica serovar Typhimurium ST313 D23580. The test can be described thus: normalized bacterial growth (OD600 20 h minus 0 h, interquartile-mean normalized) (fraction of plate interquartile mean); higher = more bacterial growth (less inhibition). The settings on record: LPM (pH 5.8, low phosphate, low Mg2+), concentration: 10 µM, temperature: 37 °C.
For `COc1cc(CC(=O)O)ccc1O` [4-Hydroxy-3-methoxyphenylacetic acid], the normalized bacterial growth came to 1.17.

Compound `COc1c(OC)c2occc2c2oc(=O)ccc12` displayed a normalized bacterial growth of 0.791. Compound `CN1CCC[C@H]1c1cccnc1` [(-)-Nicotine hydrogen tartrate salt] had a normalized bacterial growth of 0.897. For `CN1CCC[C@H]1c1cccnc1` the value was 0.984 and 0.76; for `CCCC(C(=O)OCCN(CC)CC)(c1ccccc1)c1ccccc1` [SKF-525A hydrochloride], 0.956. `CC(=O)NCCc1ccc(O)c(O)c1` [N-Acetyldopamine monohydrate] registered a normalized bacterial growth of 1.12. For `O=P(O)(O)C(O)(Cc1cccnc1)P(=O)(O)O` the value was 1.66; for `N[C@@H](Cc1ccc(F)cc1)C(=O)O` [p-Fluoro-L-phenylalanine], 1.12; for `Nc1nccc2c1ncn2[C@@H]1O[C@H](CO)[C@@H](O)[C@H]1O` [3-deazaadenosine], 1.03. For the compound `CCN(CC)C(=O)N1CCN(C)CC1`, the normalized bacterial growth was found to be 1.13.

As to `CC[C@]1(O)C[C@@H]2CN(CCc3c([nH]c4ccccc34)[C@@](C(=O)OC)(c3cc4c(cc3OC)N(C)[C@H]3[C@@](O)(C(=O)OC)[C@H](OC(C)=O)[C@]5(CC)C=CCN6CC[C@]43[C@@H]65)C2)C1`, the normalized bacterial growth is 0.862 and 0.816. In the case of `CC[C@]1(O)C[C@@H]2CN(CCc3c([nH]c4ccccc34)[C@@](C(=O)OC)(c3cc4c(cc3OC)N(C)[C@H]3[C@@](O)(C(=O)OC)[C@H](OC(C)=O)[C@]5(CC)C=CCN6CC[C@]43[C@@H]65)C2)C1` [Vinblastine sulfate salt], the normalized bacterial growth stood at 0.875. In the case of `C[C@H]1CC[C@@H](C(C)(C)O)CC2=C1CC[C@@H]2C` it was 0.999; in that of `CCN(CCCc1ccccc1)CCCc1ccccc1`, 0.817. `Cc1c(C)c2c(c(C)c1O)CC[C@@](C)(CCC[C@H](C)CCC[C@H](C)CCCC(C)C)O2` (racemic) ["Tocopherol (R,S)"] came in with a normalized bacterial growth of 0.847. `CCCCC(CC)COC(=O)c1ccccc1O` (stereo unspecified) registered a normalized bacterial growth of 0.909. As to `CC(=O)[C@H]1CC[C@H]2[C@@H]3CC=C4C[C@@H](OC(=O)CCC(=O)O)CC[C@]4(C)[C@H]3CC[C@]12C`, the normalized bacterial growth was found to be 0.769. For `CCCCCCCCCCC/C=C\C(C)(C)/C=C\CCCC(=O)O` ["7,7-Dimethyl-(5Z,8Z)-eicosadienoic acid"] the value was 1.25. In the case of `CCCCCCCCCCCCC[N+](C)(C)Cc1ccccc1` it was 1.6. `Cn1c(-c2ccc3c(c2)OCO3)cc(=O)c2ccccc21` yielded a normalized bacterial growth of 0.957. For `O=S(=O)(O)CCS` the value was 1.11. In the case of `CCn1cc(C(=O)O)c(=O)c2cnc(N3CCCC3)nc21` it was 1.13; in that of `Cc1cc2c(cc1Cl)N(C(=O)Nc1cccc3ncccc13)CC2`, 0.759; in that of `CC(C)(C)NC[C@H](O)c1ccc(O)c(CO)c1`, 1.2.

As for `O[C@H]1[C@H]2c3cc4c(cc3CN3CCC(=C[C@@H]1O)[C@H]23)OCO4`, the normalized bacterial growth is 1.1.

Consider `CCCCNC(=O)NS(=O)(=O)c1ccc(C)cc1` [Tolbutamide], for which the normalized bacterial growth amounted to 1.16. In the case of `COc1ccc(-c2oc3ccccc3c(=O)c2O)cc1OC` it was 0.927; in that of `O=C(O)c1cc(-c2ccc(F)cc2F)ccc1O`, 1.14; in that of `CC(=O)[C@H]1CC[C@H]2[C@@H]3C[C@H](C)C4=CC(=O)CC[C@]4(C)[C@H]3[C@@H](O)C[C@]12C`, 0.412. For `CC(=O)[C@H]1CC[C@H]2[C@@H]3C[C@H](C)C4=CC(=O)CC[C@]4(C)[C@H]3[C@@H](O)C[C@]12C` [Medrysone] the value was 0.832; for `COC(=O)c1c(C)cc(O)cc1O`, 0.916; for `C=C1C(=O)O[C@@H]2C[C@@]3(C)CCC[C@H](C)C3=C[C@H]12`, 0.965. Consider `COc1ccc(-c2cc(=O)c3ccc(O)cc3o2)cc1`, for which the normalized bacterial growth stood at 1.13. In the case of `OCc1cc(C(O)CNCCCCCCOCCCCc2ccccc2)ccc1O` (stereo unspecified) [Salmeterol xinafoate] it was 1.1; in that of `OCc1cc(C(O)CNCCCCCCOCCCCc2ccccc2)ccc1O` (stereo unspecified) [Salmeterol], 1.13; in that of `C#CCN1C(C)=C(C(=O)OC)C(c2cccc([N+](=O)[O-])c2)C(C(=O)OCC)=C1C` (stereo unspecified), 0.905. For the compound `N=C(N)NCCC[C@H](N)C(=O)O` [L-Arginine], the normalized bacterial growth was determined as 0.872. Take `O=c1oc2cc(O)ccc2c2oc3cc(O)ccc3c12`: the normalized bacterial growth stood at 1.02. On to `CNCCC(Oc1ccc(C(F)(F)F)cc1)c1ccccc1` (stereo unspecified) [Fluoxetine hydrochloride], for which the normalized bacterial growth amounted to 0.733. In the case of `C[C@@H](NC(=O)/C(C#N)=C/c1ccc(O)c(O)c1)c1ccccc1` [Tyrphostin AG 527] it was 1.07; in that of `COc1ccc2cc1Oc1ccc(cc1)C[C@H]1c3cc(c(OC)cc3CCN1C)Oc1c(OC)c(OC)cc3c1[C@H](C2)N(C)CC3`, 0.759; in that of `O=C1CCc2cc(OCCCCc3nnnn3C3CCCCC3)ccc2N1` [Cilostazol], 1.07. Turning to `CCS(=O)(=O)CCn1c([N+](=O)[O-])cnc1C`, the normalized bacterial growth was 0.744. On to `COc1cc(OC)c2c(c1)OC(c1ccccc1)CC2=O` (stereo unspecified), for which the normalized bacterial growth was determined as 0.939. In the case of `CCCCOc1cc(C(=O)NCCN(CC)CC)c2ccccc2n1` [Dibucaine] it was 0.917; in that of `CCCCOc1cc(C(=O)NCCN(CC)CC)c2ccccc2n1`, 0.811; in that of `CC[C@H]1OC(=O)[C@H](C)C(=O)[C@H](C)[C@@H](O[C@@H]2O[C@H](C)C[C@H](N(C)C)[C@H]2O)[C@](C)(OC)C[C@@H](C)C(=O)[C@H](C)[C@H]2N(CCCCn3cnc(-c4cccnc4)c3)C(=O)O[C@]12C`, 0.912.

Turning to `O=P(O)(O)C(Cl)(Cl)P(=O)(O)O` [Clodronic acid], the normalized bacterial growth turned out to be 0.954. In the case of `N#C/C(=C/c1ccc(O)c(O)c1)C(=O)N1CCc2ccccc21` [Tyrphostin AG 528] it was 1.04; in that of `C[C@@]12C[C@@]3(O)O[C@@H](O1)[C@]1(COC(=O)c4ccccc4)[C@H]3C[C@@]12O[C@@H]1O[C@H](CO)[C@@H](O)[C@H](O)[C@H]1O`, 0.917; in that of `CCC1=C(C)CN(C(=O)NCCc2ccc(S(=O)(=O)NC(=O)N[C@H]3CC[C@H](C)CC3)cc2)C1=O` [Glimepiride], 0.881.

For the compound `CC(C)C[C@H](NC(=O)[C@H]1O[C@@H]1C(=O)O)C(=O)NCCCCN=C(N)N`, the normalized bacterial growth is 1.01 ± 0.015. Take `CC1(C)NC(=O)N(c2ccc([N+](=O)[O-])c(C(F)(F)F)c2)C1=O` [Nilutamide]: the normalized bacterial growth turned out to be 0.487. In turn, `CCCCCCc1ccc(O)cc1O` had a normalized bacterial growth of 0.969.

As for `COC(=O)[C@@H]1[C@H]2C[C@H]3c4[nH]c5ccccc5c4CCN3C[C@@H]2CC[C@@H]1O`, the normalized bacterial growth was 0.882 and 1.22.

On to `COC(=O)[C@@H]1[C@H]2C[C@H]3c4[nH]c5ccccc5c4CCN3C[C@@H]2CC[C@@H]1O` [Yohimbine hydrochloride], for which the normalized bacterial growth turned out to be 1.34.

For the compound `C=C(C)[C@@H]1CC=C(C(=O)O)CC1`, the normalized bacterial growth is 1.22 and 1.26.

As for `C=C(C)[C@@H]1CC=C(C(=O)O)CC1` [(-)-Perillic acid], the normalized bacterial growth was found to be 1.41. With `C[C@]12C=CC(=O)C=C1CC[C@@H]1[C@@H]2[C@@H](O)C[C@@]2(C)[C@H]1CC[C@]2(O)C(=O)COC(=O)CCC(=O)O`, the normalized bacterial growth stood at 1.09. In the case of `Oc1c2ccccc2c2c3c(cccc13)N=N2` it was 0.873. Regarding `COc1ccc2cc([C@@H](C)C(=O)O)ccc2c1` [(R) -Naproxen sodium salt], the normalized bacterial growth came out at 1.19.

Consider `COC(=O)C[C@H]1C(C)(C)C(=O)[C@@H]2CC3=C4CC(=O)O[C@@H](c5ccoc5)[C@]4(C)CC[C@@H]3[C@@]1(C)C2=O`, for which the normalized bacterial growth was 0.876. In the case of `COc1ccc(C(=O)CC(=O)O)c2c1C=CC(C)(C)O2` it was 1.19; in that of `CC(C)=CCC[C@](C)(O)C1CC=C(C)CC1` (stereo partly specified), 1.1. In the case of `CC(=O)OCC(=O)[C@@]1(O)CC[C@H]2[C@@H]3C[C@H](C)C4=CC(=O)C=C[C@]4(C)[C@H]3[C@@H](O)C[C@@]21C` [6alpha-METHYLPREDNISOLONE ACETATE] it was 0.703. In turn, `CCOC(=O)C1=C[C@]2(CC)CCCN3CCc4c(n1c1ccccc41)[C@@H]32` [Vinpocetine] showed a normalized bacterial growth of 0.802.

Compound `CCOC(=O)C1=C[C@]2(CC)CCCN3CCc4c(n1c1ccccc41)[C@@H]32` came in with a normalized bacterial growth of 0.899. Take `CC1CN(S(=O)(=O)c2cccc3cnccc23)CCN1` (stereo unspecified): the normalized bacterial growth is 0.679. Regarding `COc1ccc(C2CC(=O)c3c(O)cc(O)cc3O2)cc1O` (stereo unspecified), the normalized bacterial growth was 0.995.

`COc1cnc(NS(=O)(=O)c2ccc(N)cc2)nc1` had a normalized bacterial growth of 1.02.

`O=C(O)CCC(=O)Nc1ccc(S(=O)(=O)Nc2nccs2)cc1`: the normalized bacterial growth was determined as 1.47. In the case of `Cc1cccc(CN2CCN(C(c3ccccc3)c3ccc(Cl)cc3)CC2)c1` (stereo unspecified) it was 0.977; in that of `CC1CNCCN1S(=O)(=O)c1cccc2cnccc12` (stereo unspecified), 0.96; in that of `CNCCC(Oc1ccccc1OC)c1ccccc1` (stereo unspecified) [Nisoxetine hydrochloride], 0.896. In the case of `COc1cc(CCC(C)=O)ccc1O` it was 1.24; in that of `CCCCCCCC/C=C\CCCCCCCC(=O)NCCc1ccc(O)c(O)c1` [N-Oleoyldopamine], 1.21; in that of `CN(C)[C@@H]1C(O)=C(C(N)=O)C(=O)[C@@]2(O)C(O)=C3C(=O)c4c(O)ccc(Cl)c4[C@@](C)(O)[C@H]3C[C@@H]12`, 0.11. For `CN(C)[C@@H]1C(O)=C(C(N)=O)C(=O)[C@@]2(O)C(O)=C3C(=O)c4c(O)ccc(Cl)c4[C@@](C)(O)[C@H]3C[C@@H]12` [Chlortetracycline hydrochloride] the value was 0.157. In the case of `O=C1OC2(c3ccc(O)cc3Oc3cc(O)ccc32)c2ccccc21`, the normalized bacterial growth came to 0.655. For `CC(=O)N(CC(C)C(=O)O)c1c(I)cc(I)c(N)c1I` (stereo unspecified) [Iocetamic acid] the value was 1.15; for `CC(=O)OCC1=C(C(=O)O)N2C(=O)[C@@H](NC(=O)CSc3ccncc3)[C@H]2SC1` [Cephapirin sodium], 1.29. For `C[C@]12CC[C@@H]3c4ccc(O)cc4CC[C@H]3[C@@H]1CCC2=O` [Estrone] the value was 0.92.

For `C[C@]12CC[C@@H]3c4ccc(O)cc4CC[C@H]3[C@@H]1CCC2=O`, the normalized bacterial growth was found to be 0.792.

The compound `COC1=C2C[C@@H](C)C[C@H](OC)[C@H](O)[C@@H](C)/C=C(\C)[C@H](OC(N)=O)[C@@H](OC)/C=C\C=C(/C)C(=O)NC(=CC1=O)C2=O` came in with a normalized bacterial growth of 0.85. In the case of `NC(=O)NC(=O)Cc1ccccc1` it was 1.09. For `COc1cc(C)c(C(=O)Oc2cc(C)c(C(=O)O)c(O)c2C)c(O)c1C=O` the value was 0.79.

(Values after the supplement of paper PMC10398353.)
